{"source": "PubChem BioAssay AID1508597 (Cure First, 2020)", "purpose": "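Knock-downs altering ovarian cancer cell survival with or without PARP inhibitor rucaparib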 (primary screen)", "cells": "human ovarian carcinoma lines grown from tumours: OCI-P5x (papillary serous) and OCI-C5x (clear cell)", "knock-down reagent": "siRNA pool against human genes, 1.25 pmol siRNA per well", "duration": "72 h or 96 h, depending on the cell culture", "treatment": "rucaparib 20 µM (about IC30) or vehicle, present until read-out", "measurement": "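Luminescent ATP-based viability assay read 72 or 96 h after transfection, depending on culture, given as normalised percent viability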", "reading the numbers": "viability, normalised: higher = more viable cells remaining", "hit rule": "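Active when normalised viability falls below 80 percent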", "meaning of the calls": "active = viability under 80%; inactive = viability 80% or more", "note": "The whole screen tested about 2,100 reagents; below is a random part of them. 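Calls flag viability under 80% in either arm, not effects specific to rucaparib; the reference for percent is not stated.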 Unmarked entries are inactive. Reagent sequences are not shown. Not stated in the record: the 100% reference."}
{"gene": "XRCC2", "rucaparib or vehicle": "Rucaparib", "cell line": "OCI-C5x (clear cell)", "technical replicate": "1", "viability, normalised (%)": "39 (active)"}
{"gene": "XRCC2", "rucaparib or vehicle": "Rucaparib", "cell line": "OCI-C5x (clear cell)", "technical replicate": "2", "viability, normalised (%)": "33.9 (active)"}
{"gene": "XRCC2", "rucaparib or vehicle": "Rucaparib", "cell line": "OCI-C5x (clear cell)", "technical replicate": "3", "viability, normalised (%)": "38.2 (active)"}
{"gene": "XRCC2", "rucaparib or vehicle": "Rucaparib", "cell line": "OCI-P5x (serous)", "technical replicate": "1", "viability, normalised (%)": "61.4 (active)"}
{"gene": "XRCC2", "rucaparib or vehicle": "Rucaparib", "cell line": "OCI-P5x (serous)", "technical replicate": "2", "viability, normalised (%)": "61.4 (active)"}
{"gene": "XRCC2", "rucaparib or vehicle": "Rucaparib", "cell line": "OCI-P5x (serous)", "technical replicate": "3", "viability, normalised (%)": "58.8 (active)"}
{"gene": "XRCC2", "rucaparib or vehicle": "Vehicle", "cell line": "OCI-C5x (clear cell)", "technical replicate": "1", "viability, normalised (%)": 91.9}
{"gene": "XRCC2", "rucaparib or vehicle": "Vehicle", "cell line": "OCI-C5x (clear cell)", "technical replicate": "2", "viability, normalised (%)": "47.2 (active)"}
{"gene": "XRCC2", "rucaparib or vehicle": "Vehicle", "cell line": "OCI-C5x (clear cell)", "technical replicate": "3", "viability, normalised (%)": "45.4 (active)"}
{"gene": "XRCC2", "rucaparib or vehicle": "Vehicle", "cell line": "OCI-P5x (serous)", "technical replicate": "1", "viability, normalised (%)": "64.4 (active)"}
{"gene": "XRCC2", "rucaparib or vehicle": "Vehicle", "cell line": "OCI-P5x (serous)", "technical replicate": "2", "viability, normalised (%)": "42.4 (active)"}
{"gene": "XRCC2", "rucaparib or vehicle": "Vehicle", "cell line": "OCI-P5x (serous)", "technical replicate": "3", "viability, normalised (%)": "51.6 (active)"}
{"gene": "PRKCH", "rucaparib or vehicle": "Rucaparib", "cell line": "OCI-C5x (clear cell)", "technical replicate": "1", "viability, normalised (%)": "45.4 (active)"}
{"gene": "PRKCH", "rucaparib or vehicle": "Rucaparib", "cell line": "OCI-C5x (clear cell)", "technical replicate": "2", "viability, normalised (%)": "55.8 (active)"}
{"gene": "PRKCH", "rucaparib or vehicle": "Rucaparib", "cell line": "OCI-C5x (clear cell)", "technical replicate": "3", "viability, normalised (%)": "61.2 (active)"}
{"gene": "PRKCH", "rucaparib or vehicle": "Rucaparib", "cell line": "OCI-P5x (serous)", "technical replicate": "1", "viability, normalised (%)": 119}
{"gene": "PRKCH", "rucaparib or vehicle": "Rucaparib", "cell line": "OCI-P5x (serous)", "technical replicate": "2", "viability, normalised (%)": 109}
{"gene": "PRKCH", "rucaparib or vehicle": "Rucaparib", "cell line": "OCI-P5x (serous)", "technical replicate": "3", "viability, normalised (%)": 108}
{"gene": "PRKCH", "rucaparib or vehicle": "Vehicle", "cell line": "OCI-C5x (clear cell)", "technical replicate": "1", "viability, normalised (%)": "79.8 (active)"}
{"gene": "PRKCH", "rucaparib or vehicle": "Vehicle", "cell line": "OCI-C5x (clear cell)", "technical replicate": "2", "viability, normalised (%)": "47.1 (active)"}
{"gene": "PRKCH", "rucaparib or vehicle": "Vehicle", "cell line": "OCI-C5x (clear cell)", "technical replicate": "3", "viability, normalised (%)": "54.9 (active)"}
{"gene": "PRKCH", "rucaparib or vehicle": "Vehicle", "cell line": "OCI-P5x (serous)", "technical replicate": "1", "viability, normalised (%)": 91.3}
{"gene": "PRKCH", "rucaparib or vehicle": "Vehicle", "cell line": "OCI-P5x (serous)", "technical replicate": "2", "viability, normalised (%)": 90.5}
{"gene": "PRKCH", "rucaparib or vehicle": "Vehicle", "cell line": "OCI-P5x (serous)", "technical replicate": "3", "viability, normalised (%)": 100}
{"gene": "RAD23B", "rucaparib or vehicle": "Rucaparib", "cell line": "OCI-C5x (clear cell)", "technical replicate": "1", "viability, normalised (%)": "36.7 (active)"}
{"gene": "RAD23B", "rucaparib or vehicle": "Rucaparib", "cell line": "OCI-C5x (clear cell)", "technical replicate": "2", "viability, normalised (%)": "33.2 (active)"}
{"gene": "RAD23B", "rucaparib or vehicle": "Rucaparib", "cell line": "OCI-C5x (clear cell)", "technical replicate": "3", "viability, normalised (%)": "47.1 (active)"}
{"gene": "RAD23B", "rucaparib or vehicle": "Rucaparib", "cell line": "OCI-P5x (serous)", "technical replicate": "1", "viability, normalised (%)": "59.3 (active)"}
{"gene": "RAD23B", "rucaparib or vehicle": "Rucaparib", "cell line": "OCI-P5x (serous)", "technical replicate": "2", "viability, normalised (%)": "75.4 (active)"}
{"gene": "RAD23B", "rucaparib or vehicle": "Rucaparib", "cell line": "OCI-P5x (serous)", "technical replicate": "3", "viability, normalised (%)": "57.2 (active)"}
{"gene": "RAD23B", "rucaparib or vehicle": "Vehicle", "cell line": "OCI-C5x (clear cell)", "technical replicate": "1", "viability, normalised (%)": "43.8 (active)"}
{"gene": "RAD23B", "rucaparib or vehicle": "Vehicle", "cell line": "OCI-C5x (clear cell)", "technical replicate": "2", "viability, normalised (%)": "47.8 (active)"}
{"gene": "RAD23B", "rucaparib or vehicle": "Vehicle", "cell line": "OCI-C5x (clear cell)", "technical replicate": "3", "viability, normalised (%)": "30.9 (active)"}
{"gene": "RAD23B", "rucaparib or vehicle": "Vehicle", "cell line": "OCI-P5x (serous)", "technical replicate": "1", "viability, normalised (%)": "69.6 (active)"}
{"gene": "RAD23B", "rucaparib or vehicle": "Vehicle", "cell line": "OCI-P5x (serous)", "technical replicate": "2", "viability, normalised (%)": "62.8 (active)"}
{"gene": "RAD23B", "rucaparib or vehicle": "Vehicle", "cell line": "OCI-P5x (serous)", "technical replicate": "3", "viability, normalised (%)": "55.2 (active)"}

Reprinted from the listing (6 entries):
{"gene": "XRCC2", "rucaparib or vehicle": "Vehicle", "cell line": "OCI-P5x (serous)", "technical replicate": "1", "viability, normalised (%)": "64.4 (active)"}
{"gene": "XRCC2", "rucaparib or vehicle": "Vehicle", "cell line": "OCI-P5x (serous)", "technical replicate": "2", "viability, normalised (%)": "42.4 (active)"}
{"gene": "XRCC2", "rucaparib or vehicle": "Vehicle", "cell line": "OCI-P5x (serous)", "technical replicate": "3", "viability, normalised (%)": "51.6 (active)"}
{"gene": "PRKCH", "rucaparib or vehicle": "Rucaparib", "cell line": "OCI-C5x (clear cell)", "technical replicate": "1", "viability, normalised (%)": "45.4 (active)"}
{"gene": "PRKCH", "rucaparib or vehicle": "Rucaparib", "cell line": "OCI-C5x (clear cell)", "technical replicate": "2", "viability, normalised (%)": "55.8 (active)"}
{"gene": "PRKCH", "rucaparib or vehicle": "Rucaparib", "cell line": "OCI-C5x (clear cell)", "technical replicate": "3", "viability, normalised (%)": "61.2 (active)"}
